Source: the supplement of paper PMC10849652
Some of the results follow.

Amino acid sequences for entries named in this document (tags omitted). A change or cut given only in a name is not applied to a line headed by its entry.
UniProt Q9H9A5, whole entry, looked up: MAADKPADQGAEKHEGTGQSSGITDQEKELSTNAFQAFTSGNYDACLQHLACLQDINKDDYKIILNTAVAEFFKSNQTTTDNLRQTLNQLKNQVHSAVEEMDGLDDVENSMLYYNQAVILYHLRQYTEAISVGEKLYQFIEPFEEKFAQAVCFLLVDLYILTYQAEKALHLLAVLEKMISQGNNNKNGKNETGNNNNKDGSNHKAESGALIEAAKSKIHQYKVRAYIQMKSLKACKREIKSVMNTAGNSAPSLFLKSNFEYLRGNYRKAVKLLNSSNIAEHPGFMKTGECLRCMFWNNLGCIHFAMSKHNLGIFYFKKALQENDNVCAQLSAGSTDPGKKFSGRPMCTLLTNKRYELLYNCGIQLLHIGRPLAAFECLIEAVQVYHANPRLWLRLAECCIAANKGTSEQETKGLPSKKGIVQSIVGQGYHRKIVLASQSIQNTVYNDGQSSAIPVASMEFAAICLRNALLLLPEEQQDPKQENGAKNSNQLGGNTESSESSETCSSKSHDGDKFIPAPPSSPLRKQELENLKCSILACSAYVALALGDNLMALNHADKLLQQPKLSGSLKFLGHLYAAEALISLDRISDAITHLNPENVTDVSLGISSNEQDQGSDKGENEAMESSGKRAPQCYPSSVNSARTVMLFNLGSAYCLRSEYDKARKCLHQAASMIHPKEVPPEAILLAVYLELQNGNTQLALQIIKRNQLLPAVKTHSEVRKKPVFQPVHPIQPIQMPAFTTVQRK
UniProt Q9NQ92: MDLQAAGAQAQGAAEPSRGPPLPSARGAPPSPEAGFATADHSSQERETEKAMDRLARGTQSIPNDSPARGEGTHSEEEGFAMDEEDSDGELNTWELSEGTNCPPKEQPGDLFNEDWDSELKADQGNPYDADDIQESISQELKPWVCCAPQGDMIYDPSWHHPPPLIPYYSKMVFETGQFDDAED
UniProt Q9Y6N1: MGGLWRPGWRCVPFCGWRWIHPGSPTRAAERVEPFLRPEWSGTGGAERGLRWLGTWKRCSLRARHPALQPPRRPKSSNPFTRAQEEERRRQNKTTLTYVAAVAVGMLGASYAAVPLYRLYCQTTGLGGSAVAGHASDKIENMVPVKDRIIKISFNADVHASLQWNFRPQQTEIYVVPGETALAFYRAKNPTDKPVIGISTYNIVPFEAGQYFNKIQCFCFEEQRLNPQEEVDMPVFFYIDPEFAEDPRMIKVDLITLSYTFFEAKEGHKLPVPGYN
UniProt Q8N668, whole entry, looked up: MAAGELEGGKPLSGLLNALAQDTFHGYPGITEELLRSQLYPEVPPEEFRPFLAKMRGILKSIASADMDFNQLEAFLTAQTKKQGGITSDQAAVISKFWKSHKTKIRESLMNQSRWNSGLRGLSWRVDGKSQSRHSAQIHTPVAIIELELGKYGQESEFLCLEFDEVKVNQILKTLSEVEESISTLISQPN
UniProt Q8N684: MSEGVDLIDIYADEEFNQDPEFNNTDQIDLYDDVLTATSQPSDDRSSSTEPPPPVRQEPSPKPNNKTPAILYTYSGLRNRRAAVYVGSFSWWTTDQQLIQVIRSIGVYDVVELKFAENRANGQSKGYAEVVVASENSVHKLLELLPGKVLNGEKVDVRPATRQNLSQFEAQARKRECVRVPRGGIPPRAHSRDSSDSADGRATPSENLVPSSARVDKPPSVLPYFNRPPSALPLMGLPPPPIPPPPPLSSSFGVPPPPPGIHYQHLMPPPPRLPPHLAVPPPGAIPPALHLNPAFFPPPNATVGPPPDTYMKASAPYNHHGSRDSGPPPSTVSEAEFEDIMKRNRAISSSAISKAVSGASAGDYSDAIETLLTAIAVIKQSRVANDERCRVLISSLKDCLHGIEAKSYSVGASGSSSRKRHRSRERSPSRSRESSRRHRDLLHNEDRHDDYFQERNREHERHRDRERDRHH
UniProt Q10570: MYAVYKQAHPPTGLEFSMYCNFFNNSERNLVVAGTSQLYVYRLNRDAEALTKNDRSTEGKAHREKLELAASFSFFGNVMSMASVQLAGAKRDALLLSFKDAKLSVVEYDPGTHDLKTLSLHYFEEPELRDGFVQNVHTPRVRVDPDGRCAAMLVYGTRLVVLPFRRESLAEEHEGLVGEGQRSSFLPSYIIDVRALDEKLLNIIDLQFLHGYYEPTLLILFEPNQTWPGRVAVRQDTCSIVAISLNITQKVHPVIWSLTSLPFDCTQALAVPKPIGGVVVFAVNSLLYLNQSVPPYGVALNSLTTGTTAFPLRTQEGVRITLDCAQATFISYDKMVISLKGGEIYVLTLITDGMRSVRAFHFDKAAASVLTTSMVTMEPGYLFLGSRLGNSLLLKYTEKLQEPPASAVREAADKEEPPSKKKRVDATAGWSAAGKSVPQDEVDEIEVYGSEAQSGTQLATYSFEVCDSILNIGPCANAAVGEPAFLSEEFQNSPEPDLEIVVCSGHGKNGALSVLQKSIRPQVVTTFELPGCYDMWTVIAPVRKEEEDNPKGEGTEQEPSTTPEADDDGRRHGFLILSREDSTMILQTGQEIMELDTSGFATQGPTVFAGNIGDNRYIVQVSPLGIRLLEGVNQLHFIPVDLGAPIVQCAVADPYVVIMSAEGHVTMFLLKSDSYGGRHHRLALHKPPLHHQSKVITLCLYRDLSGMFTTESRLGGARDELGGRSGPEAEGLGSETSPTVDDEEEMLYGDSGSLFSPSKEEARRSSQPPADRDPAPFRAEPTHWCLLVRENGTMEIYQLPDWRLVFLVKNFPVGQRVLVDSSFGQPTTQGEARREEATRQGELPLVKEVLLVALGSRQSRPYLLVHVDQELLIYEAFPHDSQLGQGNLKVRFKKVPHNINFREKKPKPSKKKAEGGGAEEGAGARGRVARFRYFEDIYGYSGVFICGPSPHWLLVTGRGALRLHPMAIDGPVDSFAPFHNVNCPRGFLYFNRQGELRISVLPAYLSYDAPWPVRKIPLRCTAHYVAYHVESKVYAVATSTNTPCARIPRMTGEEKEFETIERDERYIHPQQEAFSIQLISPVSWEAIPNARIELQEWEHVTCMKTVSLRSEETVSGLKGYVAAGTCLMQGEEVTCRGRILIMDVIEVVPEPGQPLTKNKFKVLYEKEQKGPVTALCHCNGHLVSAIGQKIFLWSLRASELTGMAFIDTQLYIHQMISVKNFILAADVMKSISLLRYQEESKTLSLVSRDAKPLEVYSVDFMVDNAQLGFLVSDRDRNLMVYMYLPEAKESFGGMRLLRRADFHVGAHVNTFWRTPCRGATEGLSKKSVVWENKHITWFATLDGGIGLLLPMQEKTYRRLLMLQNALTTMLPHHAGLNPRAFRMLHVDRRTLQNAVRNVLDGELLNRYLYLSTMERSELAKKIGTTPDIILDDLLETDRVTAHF
UniProt Q9H9Q2: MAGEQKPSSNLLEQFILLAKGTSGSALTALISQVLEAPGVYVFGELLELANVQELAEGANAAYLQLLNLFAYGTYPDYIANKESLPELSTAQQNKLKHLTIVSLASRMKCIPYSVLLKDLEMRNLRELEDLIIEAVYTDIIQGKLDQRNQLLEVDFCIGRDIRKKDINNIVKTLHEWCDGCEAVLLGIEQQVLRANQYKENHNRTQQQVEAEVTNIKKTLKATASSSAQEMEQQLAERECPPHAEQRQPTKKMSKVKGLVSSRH
UniProt Q8IWV2: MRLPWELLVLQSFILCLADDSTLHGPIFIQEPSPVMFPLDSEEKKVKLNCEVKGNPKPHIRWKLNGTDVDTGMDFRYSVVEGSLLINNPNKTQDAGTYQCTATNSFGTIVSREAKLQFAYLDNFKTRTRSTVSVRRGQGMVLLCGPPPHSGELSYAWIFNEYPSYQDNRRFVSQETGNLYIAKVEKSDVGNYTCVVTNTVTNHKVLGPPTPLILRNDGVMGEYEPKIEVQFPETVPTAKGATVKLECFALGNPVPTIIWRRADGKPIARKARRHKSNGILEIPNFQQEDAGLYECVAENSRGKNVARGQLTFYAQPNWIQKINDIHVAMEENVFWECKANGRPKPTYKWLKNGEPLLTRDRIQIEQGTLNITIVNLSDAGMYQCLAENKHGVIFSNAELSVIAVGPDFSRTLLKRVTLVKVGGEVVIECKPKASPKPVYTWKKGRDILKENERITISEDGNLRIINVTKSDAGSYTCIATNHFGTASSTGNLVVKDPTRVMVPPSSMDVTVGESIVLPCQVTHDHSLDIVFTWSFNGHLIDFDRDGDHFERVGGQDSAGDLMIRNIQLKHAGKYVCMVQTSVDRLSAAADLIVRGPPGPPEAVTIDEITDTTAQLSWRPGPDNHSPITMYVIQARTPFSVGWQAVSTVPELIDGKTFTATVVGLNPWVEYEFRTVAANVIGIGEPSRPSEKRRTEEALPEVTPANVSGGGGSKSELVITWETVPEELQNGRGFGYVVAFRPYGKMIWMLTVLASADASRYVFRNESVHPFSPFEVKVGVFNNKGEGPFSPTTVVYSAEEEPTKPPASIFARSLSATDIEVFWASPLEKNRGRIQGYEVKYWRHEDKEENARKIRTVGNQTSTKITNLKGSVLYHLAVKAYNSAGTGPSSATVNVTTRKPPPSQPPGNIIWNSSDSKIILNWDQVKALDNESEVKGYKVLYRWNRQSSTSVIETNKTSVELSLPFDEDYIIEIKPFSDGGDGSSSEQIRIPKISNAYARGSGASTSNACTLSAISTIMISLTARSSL
UniProt Q9Y6G5, whole entry, looked up: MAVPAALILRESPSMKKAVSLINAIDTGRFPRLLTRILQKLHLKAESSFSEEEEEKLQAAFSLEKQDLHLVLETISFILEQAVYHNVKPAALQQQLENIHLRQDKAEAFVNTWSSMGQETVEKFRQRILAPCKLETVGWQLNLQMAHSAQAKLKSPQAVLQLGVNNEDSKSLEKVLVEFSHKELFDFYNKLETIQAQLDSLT
UniProt O75976: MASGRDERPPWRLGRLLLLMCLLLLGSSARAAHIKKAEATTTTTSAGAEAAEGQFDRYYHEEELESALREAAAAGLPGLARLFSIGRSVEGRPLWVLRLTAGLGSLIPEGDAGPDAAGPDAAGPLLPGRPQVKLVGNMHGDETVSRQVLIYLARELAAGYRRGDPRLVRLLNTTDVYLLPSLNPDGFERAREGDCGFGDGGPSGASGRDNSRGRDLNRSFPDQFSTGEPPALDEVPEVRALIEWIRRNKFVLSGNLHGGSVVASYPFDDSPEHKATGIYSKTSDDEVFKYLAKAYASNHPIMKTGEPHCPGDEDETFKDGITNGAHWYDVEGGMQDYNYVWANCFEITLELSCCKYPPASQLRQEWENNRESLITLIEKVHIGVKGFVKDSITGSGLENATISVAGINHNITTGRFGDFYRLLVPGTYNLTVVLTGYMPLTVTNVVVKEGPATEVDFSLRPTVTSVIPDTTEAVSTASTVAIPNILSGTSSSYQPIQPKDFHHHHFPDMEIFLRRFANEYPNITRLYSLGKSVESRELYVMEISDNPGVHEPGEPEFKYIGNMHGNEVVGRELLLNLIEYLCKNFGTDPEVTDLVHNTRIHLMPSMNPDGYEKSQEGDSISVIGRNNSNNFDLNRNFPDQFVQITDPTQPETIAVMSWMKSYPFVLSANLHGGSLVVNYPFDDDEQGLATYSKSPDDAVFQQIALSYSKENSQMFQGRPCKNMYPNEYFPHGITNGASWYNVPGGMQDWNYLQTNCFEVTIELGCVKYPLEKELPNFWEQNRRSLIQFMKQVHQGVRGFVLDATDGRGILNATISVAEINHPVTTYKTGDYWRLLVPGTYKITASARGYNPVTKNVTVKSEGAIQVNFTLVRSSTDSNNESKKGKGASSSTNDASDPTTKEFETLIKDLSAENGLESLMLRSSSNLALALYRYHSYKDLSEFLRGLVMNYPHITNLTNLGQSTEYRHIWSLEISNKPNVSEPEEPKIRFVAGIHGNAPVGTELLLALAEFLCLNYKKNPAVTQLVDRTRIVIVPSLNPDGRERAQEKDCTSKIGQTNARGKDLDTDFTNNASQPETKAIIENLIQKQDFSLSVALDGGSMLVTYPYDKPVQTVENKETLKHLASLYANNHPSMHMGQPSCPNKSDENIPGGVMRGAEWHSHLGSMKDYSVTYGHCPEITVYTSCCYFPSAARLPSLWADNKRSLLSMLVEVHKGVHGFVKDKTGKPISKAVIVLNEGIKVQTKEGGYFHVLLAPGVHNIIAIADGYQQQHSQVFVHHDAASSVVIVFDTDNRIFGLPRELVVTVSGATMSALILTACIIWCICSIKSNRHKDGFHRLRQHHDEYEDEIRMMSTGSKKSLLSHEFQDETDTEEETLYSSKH
UniProt Q7KZN9: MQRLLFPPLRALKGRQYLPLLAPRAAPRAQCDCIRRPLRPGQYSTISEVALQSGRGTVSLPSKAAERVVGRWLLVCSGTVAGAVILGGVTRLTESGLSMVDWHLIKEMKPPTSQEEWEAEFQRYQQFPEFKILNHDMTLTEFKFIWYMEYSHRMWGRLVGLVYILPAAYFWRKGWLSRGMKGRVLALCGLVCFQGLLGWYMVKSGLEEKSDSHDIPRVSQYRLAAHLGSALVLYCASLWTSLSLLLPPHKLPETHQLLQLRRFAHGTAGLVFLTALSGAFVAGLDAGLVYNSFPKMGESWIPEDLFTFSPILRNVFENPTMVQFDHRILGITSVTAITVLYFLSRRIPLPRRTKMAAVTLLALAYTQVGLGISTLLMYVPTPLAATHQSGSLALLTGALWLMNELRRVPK

compound: C1=CC=C2C(=C1)C3=NNC4=CC=CC(=C43)C2=O; experiment: log2 fold change, soluble protein after heating vs DMSO (PISA); higher = thermal stabilisation; K562 lysate, 10 uM; active = over 0.2 and 3.5 SD of the protein, either way, in both replicates (recomputed)
How it was run: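 Soluble protein was defined as the supernatant remaining after 21,000xg for 90 min, following pooling of heated aliquots and adjustment to 0.5% NP-40 at 4°C. Before that, crude K562 extract at 1 mg/mL protein in PBS pH 7.4 with 1 mM MgCl2 was treated with 10 μM compound for 30 min and heated for 3 min across 48°C-58°C. Quantification used TMTpro 16plex LC-MS/MS with channel sums equalised, and values are log-two fold changes in thermal stability relative to solvent controls from duplicates.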

log2 fold change, inactive:
CNOT10 (UniProt Q9H9A5) -0.018
COPA isoform 2 (UniProt P53621) -0.008
COPS3 (UniProt Q9UNS2) -0.004
COX7A2 (UniProt P14406) -0.01
CNOT6 (UniProt Q9ULM6) 0.005
CNOT7 (UniProt Q9UIV1) -0.018
CNOT3 (UniProt O75175) -0.01
COX5A (UniProt P20674) 0.052
COPRS (UniProt Q9NQ92) -0.048
COQ7 (UniProt Q99807) -0.031
COTL1 (UniProt Q14019) 0.004
COX11 (UniProt Q9Y6N1) -0.068
CRADD (UniProt P78560) 0.03
COMMD1 (UniProt Q8N668) -0.021
CNOT1 (UniProt A5YKK6) -0.028
CPSF7 isoform 3 (UniProt Q8N684) 0.001
COMTD1 (UniProt Q86VU5) 0.026
COX18 (UniProt Q8N8Q8) -0.036
COX19 (UniProt Q49B96) 0.027
COPZ1 isoform 4 (UniProt P61923) 0
CPSF1 (UniProt Q10570) -0.03
CNPY2 (UniProt Q9Y2B0) 0.004
CNST (UniProt Q6PJW8) -0.054
COA1 (UniProt Q9GZY4) -0.007
COPS7B (UniProt Q9H9Q2) 0.006
COQ3 (UniProt Q9NZJ6) 0.005
CNTN4 (UniProt Q8IWV2) -0.203
COX4I1 (UniProt P13073) 0.026
CPPED1 (UniProt Q9BRF8) 0.019
COPS4 (UniProt Q9BT78) 0.045
CPSF4 (UniProt O95639) -0.053
COMMD10 (UniProt Q9Y6G5) -0.025
CPD (UniProt O75976) -0.056
CORO1C isoform 3 (UniProt Q9ULV4) -0.005
CNOT4 isoform 6 (UniProt O95628) 0.043
COMMD9 (UniProt Q9P000) 0.026
COL18A1 (UniProt P39060) -0.026
CPEB4 (UniProt Q17RY0) -0.068
COX15 (UniProt Q7KZN9) -0.081
COX6A1 (UniProt P12074) 0.065

Retrieved one by one from above, 2 records:
log2 fold change, inactive:
COL18A1 (UniProt P39060) -0.026
COMMD10 (UniProt Q9Y6G5) -0.025
